Measurements reported in PubChem BioAssay AID2685 (National Center for Advancing Translational Sciences (NCATS), 2010).
This is one part of the list. Further columns of the screen follow, without active or inactive calls. Most of these compounds were active or inconclusive in the main read-out, so they are no random draw. Words in brackets tell the shape of the fitted curve; partial curves, single points and poor fits give uncertain potencies.

Experiment: qHTS Assay for Lipid Storage Modulators in Drosophila S3 Cells;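 on cell number change: cells counted by Cell Tracker Red CMTPX staining in the red channel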
Details: BODIPY lipid droplet fluorescence, 18-24 h; for cell number change: measured here: cell count max response, cells fed with added oleic acid
Outline: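 Drosophila S3 cells loaded with oleic acid (400 uM, as added) and compounds at several concentrations; lipid droplets imaged by 488-nm laser-scanning cytometry, 500–530 nm intensity and object ratio to cell channel. Percent activity normalized to 20 uM Triacsin C.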

[1] = measured here: lipid fluorescence (Fed channel) AC50, cells fed with added oleic acid
[2] = measured here: cell number channel AC50, cells fed with added oleic acid

| Structure (SMILES) | cell number change [%] | AC50 [1] | AC50 [2] |
| --- | --- | --- | --- |
| COC(=O)CCC(=O)N1CCCC(C(=O)c2cc(F)ccc2F)C1 (stereo unspecified) | -15.7 | 0.164 µM [falling, full curve, poor fit] |  |
| CCOC(=O)C1C(=O)C=C(c2ccc(Br)cc2)CC1c1ccco1 (stereo unspecified) | -5.72 | 0.0231 µM [rising, full curve, poor fit] |  |
| Cn1c(C(=O)N2CCCC(C(=O)NCCCSC3CCCCC3)C2)cc2sccc21 (stereo unspecified) | -35.1 | 25.9 µM [falling, partial curve] | 25.9 µM [falling, partial curve] |
| COc1ccc(CCC(=O)N2CCN(S(=O)(=O)c3ccc(C)cc3)CC2)cc1 | -38.8 | 4.61 µM [falling, full curve, poor fit] | 5.8 µM [falling, full curve, poor fit] |
| O=C(CN1C2=NCCCN2c2ccccc21)c1ccc(Cl)cc1Cl | 1.05 |  |  |
| Cc1cc(NC(=O)CCCN2C(=O)/C(=C/c3cccs3)SC2=S)no1 |  |  | 6.51 µM [rising, single point] |
| O=S(=O)(c1ccc(Cl)c(NC(=S)N/N=C/c2ccc(O)cc2)c1)N1CCOCC1 | -5.68 | 2.91 µM [rising, partial curve, poor fit] |  |
| O=C(CSc1nnc(-c2cccs2)o1)N1CCCCC1 | 7.55 |  |  |
| O=C(NCc1ccco1)c1ccc(Cn2c(=O)c3ccccc3n(Cc3ccc(Cl)cc3)c2=O)cc1 |  |  | 0.651 µM [rising, single point] |
| Cc1ccccc1NS(=O)(=O)c1cccc(-c2nnc(-c3ccccc3)o2)c1 | -12.1 |  |  |
| CCOC(=O)c1c(-c2ccc(F)cc2)csc1NC(=O)CN1C(=O)NC2(CCCCC2C)C1=O (stereo unspecified) | -14.9 | 29.1 µM [falling, single point] |  |
| CCOC(=O)c1ccc2nc(NC(C)=O)sc2c1 | 5.63 |  | 0.13 µM [rising, full curve, poor fit] |
| N#CCC(=O)Nc1ccc(C(=O)OC(C(=O)Nc2cc(C(F)(F)F)ccc2Cl)c2ccccc2)cc1 (stereo unspecified) | -25.6 | 29.1 µM [falling, single point] |  |
| CCc1nnc(NC(=O)C2=NN(C3CCS(=O)(=O)C3)C(=O)CC2)s1 (stereo unspecified) | -9.44 | 4.11 µM [falling, full curve, poor fit] |  |
| CC(=O)N1CCN(C(=O)Nc2cccc(C(F)(F)F)c2)CC1 | -4.02 | 3.26 µM [falling, single point] | 0.731 µM [falling, single point] |
| COC(C(=O)NC(C(C)C)C(C)C)c1ccccc1 (stereo unspecified) | -19.8 | 29.1 µM [falling, single point] |  |
| COCCN1CCn2c(nc3cc(NC(=O)c4ccc(OC)cc4)ccc32)C1 | 30 | 4.11 µM [rising, full curve] | 4.11 µM [rising, partial curve] |
| O=C(CSc1cccc[n+]1[O-])c1cc2ccccc2o1 | -6.5 | 4.11 µM [rising, partial curve, poor fit] | 0.731 µM [rising, single point] |
| CCSc1sccc1C1C(C#N)=C(N)N(c2cccnc2)C2=C1C(=O)CCC2 (stereo unspecified) | 121 | 3.26 µM [rising, partial curve] | 5.8 µM [rising, partial curve] |
| Cc1ccnc2nc(C(=O)OCC(=O)NC(=O)NCc3ccco3)nn12 | -63.4 |  | 32.6 µM [falling, partial curve, poor fit] |

Laid out differently: entries from further up.
Structure (SMILES),cell number change [%],AC50 [1],AC50 [2]
Cc1ccccc1NS(=O)(=O)c1cccc(-c2nnc(-c3ccccc3)o2)c1,-12.1,,
CCOC(=O)c1c(-c2ccc(F)cc2)csc1NC(=O)CN1C(=O)NC2(CCCCC2C)C1=O (stereo unspecified),-14.9,"29.1 µM [falling, single point]",
CCOC(=O)c1ccc2nc(NC(C)=O)sc2c1,5.63,,"0.13 µM [rising, full curve, poor fit]"
N#CCC(=O)Nc1ccc(C(=O)OC(C(=O)Nc2cc(C(F)(F)F)ccc2Cl)c2ccccc2)cc1 (stereo unspecified),-25.6,"29.1 µM [falling, single point]",
CCc1nnc(NC(=O)C2=NN(C3CCS(=O)(=O)C3)C(=O)CC2)s1 (stereo unspecified),-9.44,"4.11 µM [falling, full curve, poor fit]",
CC(=O)N1CCN(C(=O)Nc2cccc(C(F)(F)F)c2)CC1,-4.02,"3.26 µM [falling, single point]","0.731 µM [falling, single point]"
COC(C(=O)NC(C(C)C)C(C)C)c1ccccc1 (stereo unspecified),-19.8,"29.1 µM [falling, single point]",
COCCN1CCn2c(nc3cc(NC(=O)c4ccc(OC)cc4)ccc32)C1,30,"4.11 µM [rising, full curve]","4.11 µM [rising, partial curve]"
O=C(CSc1cccc[n+]1[O-])c1cc2ccccc2o1,-6.5,"4.11 µM [rising, partial curve, poor fit]","0.731 µM [rising, single point]"
CCSc1sccc1C1C(C#N)=C(N)N(c2cccnc2)C2=C1C(=O)CCC2 (stereo unspecified),121,"3.26 µM [rising, partial curve]","5.8 µM [rising, partial curve]"
Cc1ccnc2nc(C(=O)OCC(=O)NC(=O)NCc3ccco3)nn12,-63.4,,"32.6 µM [falling, partial curve, poor fit]"

Remaining list, next part:

| Structure (SMILES) | cell number change [%] | AC50 [1] | AC50 [2] |
| --- | --- | --- | --- |
| O=C(CCCC(=O)N1CCN(c2ccc([N+](=O)[O-])cc2)CC1)c1ccccc1 | 0.498 | 1.84 µM [falling, partial curve] |  |
| CCC(=O)NNC(=O)c1c(O)c2ccccc2[nH]c1=O | 22.6 |  |  |
| O=C(NCc1ccc(F)cc1)C1CC(=O)N(C2CCCCC2)C1 (stereo unspecified) | -7.63 | 29.1 µM [falling, single point] |  |
| COc1ccc(CC2C(=O)OC(C)(C)OC2=O)cc1 | 1.78 | 0.82 µM [falling, full curve, poor fit] |  |
| Cn1c(=O)c2c(ncn2CC(O)CNc2ccc(Br)cc2)n(C)c1=O (stereo unspecified) | -9.72 | 20.6 µM [rising, partial curve, poor fit] |  |
| CCN(CC)CCN1CCn2c3c(c4cc(C)ccc42)CCCC31 (stereo unspecified) |  | 11.6 µM [rising, partial curve, poor fit] |  |
| O=C(O)c1cc(S(=O)(=O)N2CCCCC2)ccc1N1CCCCC1 | 0.373 |  |  |
| Cc1cccc(OCC(=O)Nc2ccccc2N2CCCCC2)c1C |  |  | 0.58 µM [rising, single point] |
| COCCn1c(C2CCCCC2)nc2sc3ccccc3c(=O)c2c1=O | -39.5 |  | 29.1 µM [falling, single point] |
| CCOc1ccc(N2CC(C(=O)Nc3ccc(S(=O)(=O)N4CCCC4)cc3)CC2=O)cc1 (stereo unspecified) | 20.7 |  |  |
| CCn1cc(C(=O)NCCCN2CCC(C)CC2)c(=O)c2cc(S(=O)(=O)N(C)C3CCCCC3)ccc21 | 8.75 | 6.51 µM [rising, partial curve, poor fit] |  |
| Cn1c(=O)n(C)c2cc(S(=O)(=O)N3CCCCC3)ccc21 | -2.94 | 16.4 µM [rising, partial curve] |  |
| FC(F)(F)c1cnc(Sc2ncn[nH]2)c(Cl)c1 | -15.3 | 5.17 µM [falling, full curve] |  |
| O=C(N/N=C/C1=C(N2CCOCC2)C(=C\c2ccccc2)/CC1)Nc1ccccc1 | 8.01 | 5.8 µM [rising, partial curve] | 3.66 µM [rising, single point] |
| Cc1cccc(C(=O)Nc2ccc(C(=O)/C=C/c3cccs3)cc2)c1 | -38.9 | 18.4 µM [falling, single point] | 13 µM [falling, partial curve] |
| Cc1ccc(C(=O)OCN2C(=O)c3ccccc3C2=O)cc1S(=O)(=O)N1CCOCC1 | -32.5 | 29.1 µM [falling, single point] | 29.1 µM [falling, single point] |
| O=C(CSc1nnc(-c2cccnc2)n1Cc1ccco1)c1ccc(Cl)c(Cl)c1 | -10.6 | 2.06 µM [rising, partial curve] |  |
| CCOc1ccc(NC(=O)CSCc2cnn(-c3ccccc3)c2-n2cccc2)cc1 |  | 0.651 µM [rising, single point] |  |
| CCN(CC)S(=O)(=O)c1ccc(NC(=O)COC(=O)c2ccc(NC(=O)CC#N)cc2)cc1 | 5.25 | 0.116 µM [falling, partial curve, poor fit] | 0.13 µM [falling, single point] |
| COc1cccc(OCC(=O)O/N=C(\N)c2ccc(OC)c(OC)c2)c1 | 3.64 | 25.9 µM [rising, partial curve, poor fit] |  |

| Structure (SMILES) | cell number change [%] | AC50 [1] | AC50 [2] |
| --- | --- | --- | --- |
| CC(CC(=O)NC(C)c1ccc2c(c1)OCCO2)c1ccccc1 (stereo unspecified) | -15.9 | 0.517 µM [falling, full curve, poor fit] |  |
| CCOC(=O)/C(C#N)=C1/C=CN(c2ccc(C)cc2)C=N1 |  |  | 1.46 µM [rising, partial curve] |
| COc1ccc(NC(=O)C2CCCN(C(=O)Nc3ccc(F)cc3)C2)cc1OC (stereo unspecified) | -11.1 |  |  |
| Cc1nn(C)c(C)c1N1C(=O)c2cccc3c(N)ccc(c23)C1=O | -94 | 20.6 µM [falling, partial curve] | 20.6 µM [falling, single point] |
| C/C(N)=C(/C#N)C(=O)CSc1nc(C2CCCCC2)n(-c2ccccc2)n1 | 15.4 |  | 6.51 µM [falling, single point] |
| COc1cc(COCC(O)CN2CCN(Cc3ccccc3)CC2)cc(OC)c1OC (stereo unspecified) |  |  | 0.82 µM [falling, single point] |
| O=C1c2ccccc2C(=O)C1c1nccc2ccccc12 | -6.64 |  |  |
| O=C(CN1CCCCCC1)Nc1ccc(S(=O)(=O)N2CCCCC2)cc1 | 0.87 | 29.1 µM [rising, single point] |  |
| COCCN1C(=O)/C(=C/c2ccc(N3CCCC3)cc2)SC1=S | 5.71 | 6.51 µM [falling, single point] |  |
| COC(=O)c1sccc1NC(=O)CC1C(=O)NCCN1C(=O)Nc1ccc(OCc2ccccc2)cc1 (stereo unspecified) | 22.8 | 0.116 µM [rising, full curve, poor fit] | 0.103 µM [rising, full curve, poor fit] |
| Cc1cc(NC(=O)COn2nnc3ccc(S(C)(=O)=O)cc32)ccc1Br | 12.8 | 6.51 µM [rising, partial curve] |  |
| Cc1ccc(NC(=O)c2ccc(Cl)c(S(=O)(=O)N3CCCC3)c2)nc1 | -21.9 |  |  |
| O=C(Nc1cccc2ncccc12)c1ccccc1[N+](=O)[O-] | -16 | 29.1 µM [falling, single point] |  |
| NS(=O)(=O)c1cccc(NC(=O)Cn2nc(C(=O)O)c3ccccc3c2=O)c1 | -10.5 |  |  |
| C=CCNc1nnc(C)c2ccccc12 | -1.38 | 2.31 µM [rising, partial curve] |  |
| Cc1cccc(N2CCN(S(=O)(=O)c3ccc4c(c3)CCN4C(=O)CCC(=O)O)CC2)c1C |  | 0.164 µM [falling, full curve, poor fit] |  |
| COc1ccccc1CNCC(=O)N1CC(=O)Nc2ccccc21 | -3.28 |  |  |
| CS(=O)(=O)N1CCC(C(=O)Nc2c(F)cccc2F)CC1 | 7.93 | 6.51 µM [falling, single point] |  |
| O=C(Nc1nc2ccccc2[nH]1)c1ccccc1[N+](=O)[O-] | 21.1 |  | 0.13 µM [rising, full curve, poor fit] |
